The list shows a part of the results.

This assay concerns the target T1, OsSMF1 (Oryza sativa, UniProt Q6ZLB0 1-436).
T1 sequence: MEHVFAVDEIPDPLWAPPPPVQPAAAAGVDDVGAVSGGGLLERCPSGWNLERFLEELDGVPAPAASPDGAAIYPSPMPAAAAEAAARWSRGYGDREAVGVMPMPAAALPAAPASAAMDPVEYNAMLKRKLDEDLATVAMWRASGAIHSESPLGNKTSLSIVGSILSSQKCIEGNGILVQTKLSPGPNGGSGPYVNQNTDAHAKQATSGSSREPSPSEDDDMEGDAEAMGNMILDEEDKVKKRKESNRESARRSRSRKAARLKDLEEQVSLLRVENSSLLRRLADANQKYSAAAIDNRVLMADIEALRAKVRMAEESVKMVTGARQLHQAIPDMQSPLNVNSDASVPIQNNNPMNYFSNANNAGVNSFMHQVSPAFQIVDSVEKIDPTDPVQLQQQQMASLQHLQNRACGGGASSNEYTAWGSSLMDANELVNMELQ
Nature of the assay: protein-binding microarray (RPBM); PBS, 2% BSA, 51.3 ng/ul salmon testes DNA, 50 uM zinc acetate, 200 nM TF, 25 C, 1 h; high values mean tight binding. To be noted: protein: recombinant; tags: N-terminal polyhistidine and DsRed monomer fusion (pET32a); chain copies: 2; label: CyDye5-dUTP incorporated in the synthesized complementary strand; 3' TTTTT single-stranded linker to array surface; dsDNA, one strand shown. Summed up:
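Transcription factors, each fused N-terminally to a polyhistidine tag and DsRed, were expressed in E. coli BL21-CodonPlus and purified on Ni–NTA. A custom Agilent array was made double-stranded by primer extension with Cy5-dUTP and blocked with 2% BSA. It was incubated with 200 nM protein in PBS, 2% BSA, salmon testes DNA and 50 µM zinc acetate at 25 °C for 1 h, then washed. The binding signal is per-feature fluorescence intensity (arbitrary units) read on an Axon 4000B scanner.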
On to “CTGATGACTGTCTTGTCATCATTTGATTATTTCCTAAGCCCGGAGTCACCTAGTGCAG”, for which the binding signal was 6290 fluorescence intensity (a.u.).

For “TCGACTATGCCACGTCAGCGATTCGGTACAGTACTACAGTCGGAGTCACCTAGTGCAG”, the binding signal is 25600 fluorescence intensity (a.u.).

Regarding “GCCACTTTGGAGACTTTTATGCCCAAAATGTCCGTGTAGCCGGAGTCACCTAGTGCAG”, the binding signal is 7000 fluorescence intensity (a.u.).

Regarding “GTTATATACGGATTAGCTGTATTCATCGGATTACCTGTTGCGGAGTCACCTAGTGCAG”, the binding signal was 3550 fluorescence intensity (a.u.).

On to “ACTCAACAAGTCAACACGATCAAACTCCCACATCAGCAGACGGAGTCACCTAGTGCAG”, for which the binding signal was 7320 fluorescence intensity (a.u.).

As to “GAAAATAAGGGAGTTTTCTGCAAAATTTGATGAATGGAAGCGGAGTCACCTAGTGCAG”, the binding signal is 3230 fluorescence intensity (a.u.).

“AGTCGCACGCCAAGTGTTTGTTGTTTTGCCAAGCAAGATGCGGAGTCACCTAGTGCAG”: the binding signal is 3520 fluorescence intensity (a.u.).

As for “AATTAGCATACTATAACACCAATAAACACATTATGACACCCGGAGTCACCTAGTGCAG”, the binding signal is 4380 fluorescence intensity (a.u.).

As to “TAAGGTCCATGAACTTGTTTAAGTGAATCATTGCGGTCCACGGAGTCACCTAGTGCAG”, the binding signal is 3490 fluorescence intensity (a.u.).

Take “GGAGCCCATAAGCGAAATGTGTGTGCTGTACTGCTGTTCCCGGAGTCACCTAGTGCAG”: the binding signal is 3950 fluorescence intensity (a.u.).

“ATATGCAAAATTCGCATGCCCGCTCATCGGCCTTTGTCACCGGAGTCACCTAGTGCAG”: the binding signal was 3820 fluorescence intensity (a.u.).

For “TATACTCCATCTGTTAATATATGGTCTCATCTATCATACACGGAGTCACCTAGTGCAG”, the binding signal was 30200 fluorescence intensity (a.u.).

On to “TGTAAAATATTTGGTATTAGAGTTCATGTGACAATTGTATCGGAGTCACCTAGTGCAG”, for which the binding signal is 3280 fluorescence intensity (a.u.).

In the case of “ACGTATTATCGAATTTTACGTATTCCTTCATGGAATACGTCGGAGTCACCTAGTGCAG”, the binding signal was 3180 fluorescence intensity (a.u.).

Regarding “CGTCCTACTCTCATTGTAGATGAGGTGTCTCAGTTAAACCCGGAGTCACCTAGTGCAG”, the binding signal is 4080 fluorescence intensity (a.u.).

In the case of “TTATCAAAGTAGAAGCAATTAAGCATTGTTTCATCGTCGTCGGAGTCACCTAGTGCAG”, the binding signal is 10800 fluorescence intensity (a.u.).

With “CTGAATGAGTCACTTAAACAAGATGGTGGACCTAAATGTGCGGAGTCACCTAGTGCAG”, the binding signal was 4440 fluorescence intensity (a.u.).

For the sequence “TGTGTGTGTACACGTATTTATATCCCGTGTGATCGAACAACGGAGTCACCTAGTGCAG”, the binding signal is 5770 fluorescence intensity (a.u.).

Take “CACGCGCGCACTCGTCTCGCCGCGTCCACACCCATCGGCTCGGAGTCACCTAGTGCAG”: the binding signal was 3150 fluorescence intensity (a.u.).

As for “TTCATCCTTCGTTACTGACACGTGGCCTAGTTTTGCAAGACGGAGTCACCTAGTGCAG”, the binding signal is 9300 fluorescence intensity (a.u.).

“AAAACTAAAGAAGACGACGACACGCAAGCGAAAATTGCCCCGGAGTCACCTAGTGCAG”: the binding signal is 10600 fluorescence intensity (a.u.).

On to “CTCGCTCGATCGTTCGCCGCATCAGCCAGTCTCAGTCCGCCGGAGTCACCTAGTGCAG”, for which the binding signal was 3860 fluorescence intensity (a.u.).

As for “CGCTCTCGCAGCCCCTCTCCACGTCGTCCACCACGCGCTCCGGAGTCACCTAGTGCAG”, the binding signal is 5580 fluorescence intensity (a.u.).

In the case of “TCTGCCTTTTGCTATGACAGCATTGTGTGGACTATAGCATCGGAGTCACCTAGTGCAG”, the binding signal was 3540 fluorescence intensity (a.u.).

On to “GTTCTTATCCTCCTCTGCCAGCAGTGACTCACCTCGCCACCGGAGTCACCTAGTGCAG”, for which the binding signal is 12500 fluorescence intensity (a.u.).

Regarding “CTGCTAAGTAGGTCCATGACGCAAGATCTGCTCCGGGTGACGGAGTCACCTAGTGCAG”, the binding signal was 3780 fluorescence intensity (a.u.).

Take “GCAACAAAGCGCATGTCATCATCTAGTGAATTAGCTAATGCGGAGTCACCTAGTGCAG”: the binding signal was 4040 fluorescence intensity (a.u.).

As for “TCAGTACCTCATCACTGATTTGATGCTATGCTGCCCAGTGCGGAGTCACCTAGTGCAG”, the binding signal was 33100 fluorescence intensity (a.u.).

As to “ACCAATGCAATTTCATATCAAACAGTCACGGATGGGCTTTCGGAGTCACCTAGTGCAG”, the binding signal was 3190 fluorescence intensity (a.u.).

Turning to “AGTAGTTTAAAATACATGTTAAACGGAAATCGAGGTAAAACGGAGTCACCTAGTGCAG”, the binding signal is 33700 fluorescence intensity (a.u.).

Turning to “TCCTCCAATCGGAGAGGTGTGCTCGCGTGTTTGGTTTGACCGGAGTCACCTAGTGCAG”, the binding signal was 3940 fluorescence intensity (a.u.).

Take “CTCGCTCCCTTCCTCGCCGTCATCAGCCGCGGCTGCCGCCCGGAGTCACCTAGTGCAG”: the binding signal was 3850 fluorescence intensity (a.u.).

For “CACTTGGATTAATGCGAAAATCCACGTGGAATACAACTCACGGAGTCACCTAGTGCAG”, the binding signal is 6730 fluorescence intensity (a.u.).

Turning to “GTGGGTGATCAACATGTCACAGAATATACGAGCCGGTATGCGGAGTCACCTAGTGCAG”, the binding signal is 9030 fluorescence intensity (a.u.).

For “CTTATATCCGTGTGCATGGGCCATAACTTTACTCAGTTTACGGAGTCACCTAGTGCAG”, the binding signal was 4040 fluorescence intensity (a.u.).

As to “GAAGGCTAAAACAACTTGGGTAGACCTGCTGGGCTGCCACCGGAGTCACCTAGTGCAG”, the binding signal was 36400 fluorescence intensity (a.u.).

As to “CCCGAGAGTCACGTGACACCTCACCCTTCCATTAGAAAAGCGGAGTCACCTAGTGCAG”, the binding signal was 3260 fluorescence intensity (a.u.).

Consider “AGCCTTGTCATGTAAACCTATCCTTTTGAGACACGTGCGTCGGAGTCACCTAGTGCAG”, for which the binding signal was 5780 fluorescence intensity (a.u.).

As for “CGCCTTCAATGCATCATCTTCGCCTCTCGACTCAATCTGCCGGAGTCACCTAGTGCAG”, the binding signal was 3480 fluorescence intensity (a.u.).

As for “CAAATTCGCGATTCTCTCATCTAATCCTCCTCCTCCTCCCCGGAGTCACCTAGTGCAG”, the binding signal is 4480 fluorescence intensity (a.u.).

Turning to “CACCCCTAGACACCTGTAGCTGCTAGCTCACATCATTTTGCGGAGTCACCTAGTGCAG”, the binding signal was 4890 fluorescence intensity (a.u.).

Take “ACCCATTCACCAATGATTGGATCACTCAAAGCCAAAGACCCGGAGTCACCTAGTGCAG”: the binding signal was 27900 fluorescence intensity (a.u.).

The record behind these values is PMC7819943, “Rice protein-binding microarrays: a tool to detect cis-acting elements near promoter regions in rice”.
